Test results from patent US20040156930A1, “Treating mouth ulcers with patches to speed healing and relieve pain” (priority 2002, published 2004).
For some assays here: At least one compound was matched to its structure with a doubt left. Some entries share one result that the patent states for a list of compounds.

Experiments:
[1] = system: canker sores (aphthous ulcers); test: Inventor's trials of oral patches with licorice root extract or amoxicillin on canker sores; assay type: in vivo, human; conditions: in a patch applied for half of the hours, day and night; typically 10-14 days without treatment
Description: For medication to be placed in the patch, any of the above-mentioned antimicrobials, or similar antimicrobials, may be used. […] A preferred quantity of licorice extract in each patch that lasts 1 to 6 hours is 20 to 95 milligrams.
In the testing, conventional amoxicillin powder for preparation of oral suspension was used, which includes sugars and other excipients. The sugars act as a binder to the sponge of the oral patch. The oral suspension is massaged into the patch and dried. Preferably, the amoxicillin powder is mixed into a stronger than normal liquid form before being added to the patch.

[2] = system: canker sores (aphthous ulcers); conditions: topical application, reported in literature; cited from earlier work

CC1(C)S[C@@H]2[C@H](NC(=O)[C@H](N)c3ccc(O)cc3)C(=O)N2[C@H]1C(=O)O [amoxicillin]
duration of each canker sore [1]: 1 to 3 days

CN(C)[C@@H]1C(O)=C(C(N)=O)C(=O)[C@@]2(O)C(O)=C3C(=O)c4c(O)cccc4[C@@](C)(O)[C@H]3C[C@@H]12 [tetracycline]
healing of canker sores [2]: shown to speed healing of canker sores
